Laboratory results as given in publication PMC10587159, “Biosynthesis and engineering of the nonribosomal peptides with a C-terminal putrescine” (Nature Communications, 2023).
Non-standard residues stand in square brackets, D forms with d. Residues, ends and D or L forms follow the SMILES beside them. *: point of attachment. Lauroyl = CCCCCCCCCCCC(=O)*; NH(CH2)4NH2 = NCCCCN*

Experiment: Product yields in crude extracts of wild type and mutant strains (HPLC-MS)
Conditions: Average of n = 3

## CCCCCCCCCCCC(=O)N[C@H](CC(C)C)C(=O)N[C@H](CC(N)=O)C(=O)N1CCC[C@H]1C(=O)N[C@H](C(=O)N[C@H](Cc1ccccc1)C(=O)N1CCC[C@H]1C(=O)N[C@@H](Cc1c[nH]c2ccccc12)C(=O)N[C@@H](C(=O)N[C@@H](C)C(=O)N[C@H](C)C(=O)N[C@@H](CO)C(=O)N[C@@H](C)C(=O)NCCCCN)C(C)C)C(C)C [Compound 9, Glidonin I] (Lauroyl-[dL][dN]PV[dF]PW[dV]A[dA]SA-{NH(CH2)4NH2})
Mutant Del-C13A*T13TE
  Relative yield of 9 and intermediate 9a between WT and mutants: 0
Mutant Del-TE2
  Relative yield of 9 and intermediate 9a between WT and mutants: 34.1432
Mutant Del-TE
  Relative yield of 9 and intermediate 9a between WT and mutants: 0.8285
Mutant P13-TE
  Relative yield of 9 and intermediate 9a between WT and mutants: 0
Strain WT
  Relative yield of 9 and intermediate 9a between WT and mutants: 100
